From article PMC4178060, “Recombinant p35 from Bacteria Can Form Interleukin (IL-)12, but Not IL-35” (PLoS ONE, 2014)
These are yes or no findings as the source states them, for the method shown. For part of these data: Binding seen in cells or lysates may run through a third protein. Some entries that bind do so weakly or less than the wild type. Sequences can lack the tags named with a protein.

How the values were obtained:
[1] = molecular target: T1, Fc-tagged EBI3 (murine EBI3) (mouse) (UniProt O35228); experiment: pull-down; lysates of separately transfected cells mixed and incubated overnight at 4°C; EBI3-Fc precipitated with Protein-A-agarose beads via the Fc tag; immunoprecipitation buffer 20 mM Tris pH 7.5, 150 mM NaCl, 1% Triton X-100; Western blot against flag- and Fc-tag
T1 sequence: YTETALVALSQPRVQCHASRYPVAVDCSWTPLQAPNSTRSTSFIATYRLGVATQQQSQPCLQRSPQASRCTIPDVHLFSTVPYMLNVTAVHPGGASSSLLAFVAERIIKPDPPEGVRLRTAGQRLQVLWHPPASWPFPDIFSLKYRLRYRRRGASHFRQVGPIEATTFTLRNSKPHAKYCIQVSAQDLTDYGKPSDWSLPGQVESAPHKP

[2] = molecular target: T2, Fc-tagged EBI3 (murine EBI3) (mouse), O35228; experiment: as above; settings: remark: other sources report otherwise
T2 chain: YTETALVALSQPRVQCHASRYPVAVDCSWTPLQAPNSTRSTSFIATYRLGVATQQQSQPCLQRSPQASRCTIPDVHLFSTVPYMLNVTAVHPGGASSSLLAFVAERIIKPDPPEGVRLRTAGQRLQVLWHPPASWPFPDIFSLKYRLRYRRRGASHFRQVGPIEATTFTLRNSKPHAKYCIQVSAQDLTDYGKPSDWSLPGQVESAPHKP

[3] = molecular target: T3, p40_(C197A) (murine p40, flag-tagged) (mouse) (UniProt P43432); experiment: non-reducing SDS-PAGE with Western blot; 20 µl conditioned supernatant of transiently transfected HEK293 cells separated by SDS-PAGE under non-reducing conditions; flag-specific antibody; disulfide-linked dimer
T3 sequence: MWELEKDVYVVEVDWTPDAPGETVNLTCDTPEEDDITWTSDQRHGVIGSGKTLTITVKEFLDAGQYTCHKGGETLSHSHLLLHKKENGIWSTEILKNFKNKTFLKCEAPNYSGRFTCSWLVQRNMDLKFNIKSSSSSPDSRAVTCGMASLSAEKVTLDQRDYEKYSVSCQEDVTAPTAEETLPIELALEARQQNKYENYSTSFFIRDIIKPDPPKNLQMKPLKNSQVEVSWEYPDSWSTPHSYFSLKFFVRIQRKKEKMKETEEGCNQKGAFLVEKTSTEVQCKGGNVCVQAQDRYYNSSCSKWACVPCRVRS

B1: flag-tagged p35 (murine p35) (protein, UniProt P43431 23-215)
chain: RVIPVSGPARCLSQSRNLLKTTDDMVKTAREKLKHYSCTAEDIDHEDITRDQTSTLKTCLPLELHKNESCLATRETSSTTRGSCLPPQKTSLMMTLCLGSIYEDLKMYQTEFQAINAALQNHNHQQIILDKGMLVAIDELMQSLNHNGETLRQKPPVGEADPYRVKMKLCILLHAFSTRVVTINRVMGYLSSA
- binding [1]: binds

B2: flag-tagged p19 (murine p19), Q9EQ14 22-196 (protein)
chain: VPRSSSPDWAQCQQLSRNLCMLAWNAHAPAGHMNLLREEEDEETKNNVPRIQCEDGCDPQGLKDNSQFCLQRIRQGLAFYKHLLDSDIFKGEPALLPDSPMEQLHTSLLGLSQLLQPEDHPRETQQMPSLSSSQQWQRPLLRSKILRSLQAFLAIAARVFAHGAATLTEPLVPTA
- binding [2]: no binding

B3: p40_(C197A) (murine p40, flag-tagged) (protein, UniProt P43432 23-335)
chain: MWELEKDVYVVEVDWTPDAPGETVNLTCDTPEEDDITWTSDQRHGVIGSGKTLTITVKEFLDAGQYTCHKGGETLSHSHLLLHKKENGIWSTEILKNFKNKTFLKCEAPNYSGRFTCSWLVQRNMDLKFNIKSSSSSPDSRAVTCGMASLSAEKVTLDQRDYEKYSVSCQEDVTAPTAEETLPIELALEARQQNKYENYSTSFFIRDIIKPDPPKNLQMKPLKNSQVEVSWEYPDSWSTPHSYFSLKFFVRIQRKKEKMKETEEGCNQKGAFLVEKTSTEVQCKGGNVCVQAQDRYYNSSCSKWACVPCRVRS
- binding [3]: no binding
